# Values joined by “and” are separate entries in the source; they are usually repeats but may differ in a detail not shown here. Identical values can stand only once. Some of the results follow. The main result of the screen is listed elsewhere. These columns were measured beside it and carry no call. For part of these data: The list favours compounds with an active or inconclusive main result. For part of these data: The note in brackets gives the kind of curve behind each potency; many fits are weak.
# Columns and labels:
# [1] = qHTS assay for small molecule antagonists of retinoid X receptor alpha signaling (AID 588546); details: HEK293T RXRa-UAS-bla, beta-lactamase ratio, antagonist mode; measured here: W530 green channel, cytotoxicity proxy;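 also: cells stimulated with 9-cis-retinoic acid as agonist; % is scaled to controls: 0 for no effect and ±100 for the full control effect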
# Procedure, shortened: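 Beta-lactamase reporter inhibition, read as CCF4 fluorescence ratio (ex 405, em 460/530 nm) after 2 h at RT. HEK293T UAS-bla cells, 2500/well, were stimulated with 9-cis-RA at 500 or 100 nM final alongside test compound for 18 h at 37 C.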
# [2] = S16 Schwann cell PMP22 intronic element beta-lactamase assay (AID 624044); details: S16 rat Schwann cells, PMP22 element beta-lactamase FRET, 24 h
# Procedure, shortened: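 Beta-lactamase reporter under a PMP22 intronic regulatory element in stable S16 rat Schwann cells; 24 h compound exposure. 460 nm blue signal normalized between DMSO (0%) and potassium clavulanate, with 535 nm FRET tracking viability; curves classed by r2 and response.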
# [3] = A High-Content qHTS Against Drug Library for the Identification of Small Molecules that Inhibit DYT1 Early Onset Primary Dystonia-Associated Cell Pathology (AID 1645839); details: HEK293 Flp-In EGFP-delE TorsinA, punctate imaging, 48 h; measured here: cell count cytotoxicity
# Procedure, shortened: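 High-content imaging quantified EGFP-TorsinA mislocalization in HEK293-derived cells inducibly expressing DYT1 mutant torsinA, after 48 h exposure to compound given together with tetracycline induction. Cell count served as a toxicity channel alongside %pathology.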
# [4] = qHTS drug screen for cell cycle checkpoint inhibitors in PARPi-resistant BRCA-mutant ovarian cancer cell lines. (AID 1963452); details: PEO1/OlaR viability, CellTiter-Glo luminescence, 96 h
# Procedure, shortened: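 PEO1, PEO4 and PEO1/OlaR ovarian cancer cells, 600 per well, exposed 96 h at 37C to a dilution series. Viability read by CellTiter-Glo luminescence, normalized to DMSO and empty wells; activity summarized as Z-AUC.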
# [5] = qHTS for identification of novel therapeutic agents for treatment of microphthalmiaassociated transcription factor (MiT) renal cell carcinoma (RCC) (AID 1963991); details: CellTiter-Glo, 48 h; for z-score: stronger effect = lower value
# Procedure, shortened: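 Curves over 11 concentrations were fitted to CellTiter-Glo luminescence, scaled between empty wells (0%) and DMSO (100%) viability. Cells were UOK109, UOK124 and UOK145 TFE3-fusion RCC lines at 500/well, exposed 48 hours at 37 C.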
# [6] = qHTS assay for small molecule antagonists of peroxisome proliferator-activated receptor gamma signaling (AID 588537); details: HEK293 PPARg-UAS-bla, beta-lactamase ratio, antagonist mode; measured here: W460 blue channel
# Procedure, shortened: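 Antagonist-mode β-lactamase reporter screen run as a titration series. HEK293 PPARγ-UAS-bla cells are stimulated with rosiglitazone (50 nM final) for 16 h, then CCF4 is read at 460/530 nm. Data are scaled between DMSO and rosiglitazone and fitted to the Hill equation.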
# [7] = qHTS assay for small molecule agonists of retinoid X receptor alpha signaling (AID 588544); details: HEK293T RXRa-UAS-bla, beta-lactamase reporter, 18 h; 530 nm emission
# [8] = NCATS anti-infectives library activity on the primary C. elegans qHTS viability assay (AID 1745855); details: C. elegans worm area imaging
# Procedure, shortened: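 GFP read-out by 488 nm laser cytometry at day 0, 3 and 7, gated on object perimeter, area and peak intensity, scored viability of PE254-GFP-FLuc worms exposed to compound in S medium with bacterial capsules at 21 °C.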
# [9] = measured here: 460 nm blue channel
# [10] = measured here: PEO1 parental viability
# [11] = TFE3-RCC UOK109 viability, measured here: UOK109 Z-AUC
# [12] = TFE3-RCC viability, measured here: UOK124 Z-AUC
# [13] = TFE3-RCC viability, measured here: UOK124 cell viability
# [14] = TFE3-RCC viability, measured here: UOK145 Z-AUC
# [15] = TFE3-RCC viability, measured here: UOK145 cell viability
# [16] = day 7, measured here: worm area, day 3
smiles,measurement,setting,value
CC(=O)Oc1ccccc1C(=O)Nc1ncc([N+](=O)[O-])s1,max response,[1],29.7%
same,AC50,[2]; [9],"1.41 µM [falling, partial curve, poor fit]"
same,AC50,[3],"2 µM [falling, full curve, poor fit]"
same,AC50,[4]; [10],"17.4 µM [falling, partial curve]"
same,AC50,[4]; measured here: PEO4 viability,"21.9 µM [falling, partial curve]"
same,z-score,[5]; [11],1.57
same,z-score,[5]; [12],0.724
same,AC50,[5]; [13],"27 µM [falling, partial curve]"
same,z-score,[5]; [14],1.39
same,AC50,[5]; [15],"38.2 µM [falling, partial curve]"
C#C[C@]1(O)CC[C@H]2[C@@H]3CCc4cc(O)ccc4[C@H]3CC[C@@]21C,AC50,[6],"35.5 µM [falling, partial curve]"
same,max response,[7],6.83% and -10.6%
same,max response,[1],-4.49% and -11.9%
same,AC50,[3],"2.82 µM [falling, full curve]"
same,AC50,[4]; [10],"19.5 µM [falling, single point]"
same,AC50,[4]; measured here: PEO4 viability,"24.5 µM [falling, single point]"
O=C(Nc1cccc2c(=O)cc(-c3nn[nH]n3)oc12)c1ccc(OCCCCc2ccccc2)cc1,AC50,[3],"17.8 µM [falling, partial curve, poor fit]"
same,z-score,[5]; [11],0.0499
same,z-score,[5]; [12],-0.096
same,AC50,[5]; [13],"29.6 µM [falling, single point]"
same,z-score,[5]; [14],0.138
Clc1ccc(C(Cn2ccnc2)OCc2ccc(Sc3ccccc3)cc2)c(Cl)c1 (stereo not drawn),AC50,[3],"1.12 µM [rising, full curve, poor fit]"
same,AC50,[4]; [10],"12.3 µM [falling, partial curve, poor fit]"
same,AC50,[4]; measured here: PEO4 viability,"15.5 µM [falling, partial curve]"
same,z-score,[5]; [11],-0.0559
same,z-score,[5]; [12],0.55
same,AC50,[5]; [13],"23.5 µM [falling, partial curve]"
same,z-score,[5]; [14],2.82
same,AC50,[5]; [15],"26.4 µM [falling, single point]"
CCN(CC)CCNC(=O)c1c(C)[nH]c(/C=C2\C(=O)Nc3ccc(F)cc32)c1C,AC50,[3],"35.5 µM [falling, single point]"
same,AC50,[4]; [10],"11 µM [falling, partial curve]"
same,AC50,[4]; measured here: PEO4 viability,"19.5 µM [falling, partial curve]"
O=C(NOCC1CC1)c1ccc(F)c(F)c1Nc1ccc(I)cc1Cl,AC50,[3],"12.6 µM [falling, single point]"
same,AC50,[4]; [10],"5.49 µM [falling, single point]"
same,z-score,[5]; [11],-1.29
same,z-score,[5]; [12],-0.235
same,AC50,[5]; [13],"18.7 µM [falling, partial curve]"
same,z-score,[5]; [14],-0.299
same,AC50,[5]; [15],"20.9 µM [falling, partial curve]"
CCN(CC)CCNc1ccc(CO)c2sc3ccccc3c(=O)c12,AC50,[2]; [9],"7.94 µM [falling, partial curve]"
same,AC50,[2]; measured here: 530 nm viability channel,"11.2 µM [rising, full curve]"
same,AC50,[3],"5.62 µM [falling, partial curve, poor fit]"
same,AC50,[8]; [16],"1.83 µM [falling, full curve, poor fit]"
CN1C[C@H]2c3ccccc3Oc3ccc(Cl)cc3[C@@H]2C1,AC50,[3],"1.12 µM [falling, full curve, poor fit]"
same,z-score,[5]; [11],0.217
same,z-score,[5]; [12],0.0174
same,z-score,[5]; [14],-0.0732
O=C(O)c1ccc(-n2nc(-c3ccccc3O)nc2-c2ccccc2O)cc1,AC50,[3],"0.316 µM [falling, full curve, poor fit]"
same,AC50,[4]; [10],"11 µM [falling, partial curve]"
same,AC50,[4]; measured here: PEO4 viability,"5.49 µM [falling, full curve]"
same,z-score,[5]; [11],0.638
same,z-score,[5]; [12],0.424
same,AC50,[5]; [13],"23.5 µM [falling, single point]"
same,z-score,[5]; [14],1.14
same,AC50,[5]; [15],"26.4 µM [falling, single point]"
Oc1c(Cl)cc(Cl)c2cccnc12,AC50,[2]; [9],"17.8 µM [falling, partial curve]"
same,AC50,[3],"5.62 µM [falling, full curve, poor fit]"
same,AC50,[4]; [10],"13.8 µM [falling, single point]"
same,AC50,[4]; measured here: PEO4 viability,"13.8 µM [falling, partial curve]"
same,z-score,[5]; [11],0.499
same,z-score,[5]; [12],-0.0712
same,AC50,[5]; [13],"13.2 µM [falling, partial curve]"
same,z-score,[5]; [14],0.484
same,AC50,[5]; [15],"18.7 µM [falling, partial curve]"
CCCCCCCCOc1ccccc1C(=O)Nc1ccc(C(=O)OCC[N+](C)(CC)CC)cc1,AC50,[3],"35.5 µM [falling, single point]"
same,z-score,[5]; [11],0.393
same,z-score,[5]; [12],0.0343
same,AC50,[5]; [13],"20.9 µM [falling, single point]"
same,z-score,[5]; [14],0.18
O[C@@H](c1cc(C(F)(F)F)nc2c(C(F)(F)F)cccc12)[C@H]1CCCCN1,AC50,[2]; [9],"25.1 µM [falling, single point]"
same,AC50,[3],"2.82 µM [falling, full curve]"
same,AC50,"[8]; day 7, measured here: worm number","16.3 µM [falling, partial curve, poor fit]"
same,AC50,[8]; [16],"25.8 µM [falling, single point]"
CC/C(=C(/CC)c1ccc(O)cc1)c1ccc(O)cc1,max response,[7],26.8%
same,max response,[1],12.1% and -21.9%
same,AC50,[3],"1 µM [falling, full curve, poor fit]"
same,AC50,[4]; [10],"21.9 µM [falling, single point]"
same,AC50,[4]; measured here: PEO4 viability,"24.5 µM [falling, single point]"

# — PubChem BioAssay (NCATS)
